Results are given in words; binding and its absence hold for the method and conditions named. For part of these data: In cells and extracts the contact can be indirect. Some entries that bind do so weakly or less than the wild type.

Chains of the proteins cited; added tags and fusions are not shown. Residues count along the entry.
UniProt P05556: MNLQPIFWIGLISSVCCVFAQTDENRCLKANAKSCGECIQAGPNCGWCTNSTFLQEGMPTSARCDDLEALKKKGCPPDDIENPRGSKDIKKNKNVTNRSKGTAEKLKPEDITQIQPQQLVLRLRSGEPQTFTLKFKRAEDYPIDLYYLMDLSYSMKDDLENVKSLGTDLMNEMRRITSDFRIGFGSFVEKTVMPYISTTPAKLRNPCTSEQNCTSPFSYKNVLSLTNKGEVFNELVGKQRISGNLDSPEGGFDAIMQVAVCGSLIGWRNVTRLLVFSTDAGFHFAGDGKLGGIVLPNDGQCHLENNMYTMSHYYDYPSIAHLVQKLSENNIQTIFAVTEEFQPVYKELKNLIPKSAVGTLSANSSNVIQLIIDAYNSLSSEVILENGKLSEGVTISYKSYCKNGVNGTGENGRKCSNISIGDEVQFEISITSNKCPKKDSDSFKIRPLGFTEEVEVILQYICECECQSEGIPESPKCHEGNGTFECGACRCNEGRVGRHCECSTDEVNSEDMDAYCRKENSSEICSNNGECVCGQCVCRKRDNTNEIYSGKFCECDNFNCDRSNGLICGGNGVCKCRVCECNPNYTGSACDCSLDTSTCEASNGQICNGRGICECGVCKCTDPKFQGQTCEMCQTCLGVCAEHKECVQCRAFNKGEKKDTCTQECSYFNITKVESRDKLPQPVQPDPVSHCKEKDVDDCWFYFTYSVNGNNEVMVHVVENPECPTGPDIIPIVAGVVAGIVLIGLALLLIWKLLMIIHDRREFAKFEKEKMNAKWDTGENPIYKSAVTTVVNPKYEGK
UniProt P16144, residues 28-1822: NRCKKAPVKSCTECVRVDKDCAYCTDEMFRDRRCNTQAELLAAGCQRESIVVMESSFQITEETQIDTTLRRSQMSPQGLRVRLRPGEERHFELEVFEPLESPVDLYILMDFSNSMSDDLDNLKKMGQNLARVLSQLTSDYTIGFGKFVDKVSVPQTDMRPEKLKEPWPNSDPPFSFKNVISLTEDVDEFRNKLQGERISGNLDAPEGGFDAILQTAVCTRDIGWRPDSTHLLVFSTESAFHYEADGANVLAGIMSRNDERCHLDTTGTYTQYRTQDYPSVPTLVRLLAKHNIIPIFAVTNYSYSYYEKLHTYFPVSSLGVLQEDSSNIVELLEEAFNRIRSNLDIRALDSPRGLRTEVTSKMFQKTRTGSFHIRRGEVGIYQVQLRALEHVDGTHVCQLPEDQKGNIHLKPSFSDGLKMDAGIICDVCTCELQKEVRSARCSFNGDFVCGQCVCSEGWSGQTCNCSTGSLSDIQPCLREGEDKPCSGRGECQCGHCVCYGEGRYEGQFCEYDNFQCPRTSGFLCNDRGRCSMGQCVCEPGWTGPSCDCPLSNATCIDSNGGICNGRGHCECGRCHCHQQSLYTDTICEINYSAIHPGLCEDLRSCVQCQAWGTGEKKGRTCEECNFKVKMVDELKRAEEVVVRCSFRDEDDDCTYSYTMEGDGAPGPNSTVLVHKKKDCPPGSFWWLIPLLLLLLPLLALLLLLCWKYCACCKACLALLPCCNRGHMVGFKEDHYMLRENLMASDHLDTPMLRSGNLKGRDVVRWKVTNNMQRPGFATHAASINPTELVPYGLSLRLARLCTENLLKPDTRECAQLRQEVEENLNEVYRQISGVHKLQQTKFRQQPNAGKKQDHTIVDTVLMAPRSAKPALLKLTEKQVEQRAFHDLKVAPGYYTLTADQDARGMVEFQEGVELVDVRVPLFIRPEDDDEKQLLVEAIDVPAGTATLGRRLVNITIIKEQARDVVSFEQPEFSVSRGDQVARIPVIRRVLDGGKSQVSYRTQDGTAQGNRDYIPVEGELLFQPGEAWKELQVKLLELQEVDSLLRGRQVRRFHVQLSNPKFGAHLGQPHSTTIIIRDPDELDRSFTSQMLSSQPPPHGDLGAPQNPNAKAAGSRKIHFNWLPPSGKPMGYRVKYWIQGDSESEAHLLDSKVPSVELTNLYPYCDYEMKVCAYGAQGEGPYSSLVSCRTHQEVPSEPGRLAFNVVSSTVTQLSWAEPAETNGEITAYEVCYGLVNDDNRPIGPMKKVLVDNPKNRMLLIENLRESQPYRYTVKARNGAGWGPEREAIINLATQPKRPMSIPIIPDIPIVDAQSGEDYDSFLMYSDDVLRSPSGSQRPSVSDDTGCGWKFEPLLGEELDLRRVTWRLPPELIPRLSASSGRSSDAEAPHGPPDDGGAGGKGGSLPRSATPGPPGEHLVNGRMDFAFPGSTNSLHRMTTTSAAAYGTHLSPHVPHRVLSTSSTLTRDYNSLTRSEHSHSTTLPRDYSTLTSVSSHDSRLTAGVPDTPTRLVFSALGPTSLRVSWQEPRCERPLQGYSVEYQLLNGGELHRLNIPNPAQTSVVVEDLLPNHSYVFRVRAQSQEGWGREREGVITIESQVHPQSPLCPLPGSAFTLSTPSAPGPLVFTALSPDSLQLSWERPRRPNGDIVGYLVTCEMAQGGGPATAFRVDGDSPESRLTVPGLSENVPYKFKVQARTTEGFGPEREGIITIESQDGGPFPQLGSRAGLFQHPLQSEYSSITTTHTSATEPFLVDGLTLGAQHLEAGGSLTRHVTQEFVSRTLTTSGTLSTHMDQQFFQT
UniProt P02769, residues 25-607: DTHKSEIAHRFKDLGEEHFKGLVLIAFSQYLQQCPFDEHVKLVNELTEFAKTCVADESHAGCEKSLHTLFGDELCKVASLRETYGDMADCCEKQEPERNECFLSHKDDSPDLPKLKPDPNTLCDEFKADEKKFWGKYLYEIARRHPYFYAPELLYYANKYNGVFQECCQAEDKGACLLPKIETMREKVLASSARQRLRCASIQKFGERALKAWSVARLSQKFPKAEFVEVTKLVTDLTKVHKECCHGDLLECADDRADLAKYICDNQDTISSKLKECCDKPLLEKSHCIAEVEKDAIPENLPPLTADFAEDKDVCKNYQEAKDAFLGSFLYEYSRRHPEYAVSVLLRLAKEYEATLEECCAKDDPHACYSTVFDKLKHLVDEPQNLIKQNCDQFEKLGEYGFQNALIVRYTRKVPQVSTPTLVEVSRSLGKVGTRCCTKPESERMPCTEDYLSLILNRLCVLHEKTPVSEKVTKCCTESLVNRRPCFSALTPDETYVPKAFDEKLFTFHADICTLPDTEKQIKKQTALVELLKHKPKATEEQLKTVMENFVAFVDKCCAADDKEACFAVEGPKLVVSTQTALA

Assay [1] has as its target beta 1 integrin subunit, endogenous (human (endogenous in MDA MB453)) (UniProt P05556). Kind of assay: co-IP; MDA MB453 cells treated or not with laminin (50 pg ml-1 as printed) for 5 min, lysed in the absence of ionic detergent; 2 mg lysate immunoprecipitated with MAb 3E1 (beta 4) or MAR4 (beta 1); blot with MAb c-neu Ab3; filters reprobed with anti-beta 1 or anti-beta 4 antibodies.

Assay [2] concerns the target beta 4 integrin subunit, endogenous (human (endogenous in MDA MB453)) (UniProt P16144). The description is as above.
For assay [3], the target named is bovine serum albumin (bovine) (UniProt P02769). Kind of assay: condition: up to 5 x 10^5 c.p.m. of labelled ECD (axis of Figure 5); radioligand binding; 125I-labelled ECD in dilutions added to wells of 96-well plates adsorbed with laminin, fibronectin, BSA or MAb MGR2 at 10 pg per well (so in the source); both purified.

For the substance “p185HER2 oncoprotein (c-erbB-2 product), endogenous in breast carcinoma cells (from UniProt P04626 23-1255) (receptor)”, the figures for the binding entry in assay [1] and in assay [2] were “no binding” and “binds”, respectively. Turning to “human c-erbB-2 receptor extracellular domain (ECD), recombinant, radiolabelled (from UniProt P04626 23-622) (domain or fragment)”, the binding result in assay [3] was “no binding”.
